For the test, the target named is Flag-Tat (HIV-1 transactivator protein Tat) (HIV-1) (UniProt P04608). Description: co-IP; anti-Flag M2 antibody on BSA-blocked protein A/G agarose beads, lysate of HEK293T cells transfected with Flag-Tat, overnight at 4 °C, IgG as control; cells treated beforehand with DMSO (0.1%), 110FA or 102FA (1 µM); eluate blotted for Cyclin T1 and Cdk9.

Chains of the proteins cited; added tags and fusions are not shown.
UniProt P04608: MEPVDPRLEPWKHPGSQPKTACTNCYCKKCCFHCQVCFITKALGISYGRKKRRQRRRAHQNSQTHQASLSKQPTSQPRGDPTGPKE
UniProt P50750: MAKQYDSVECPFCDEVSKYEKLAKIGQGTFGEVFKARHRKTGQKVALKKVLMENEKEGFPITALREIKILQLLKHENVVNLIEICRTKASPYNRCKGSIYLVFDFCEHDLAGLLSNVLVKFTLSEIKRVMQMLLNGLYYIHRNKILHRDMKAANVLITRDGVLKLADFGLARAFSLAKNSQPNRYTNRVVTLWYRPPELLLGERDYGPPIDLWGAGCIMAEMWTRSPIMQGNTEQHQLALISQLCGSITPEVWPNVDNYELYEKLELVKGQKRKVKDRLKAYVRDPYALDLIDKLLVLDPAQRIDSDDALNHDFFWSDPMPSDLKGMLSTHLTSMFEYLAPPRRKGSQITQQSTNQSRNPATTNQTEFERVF

No constants are given. Whether binding was seen depends on the method and setting. In cells and extracts the contact can be indirect. Some results given as binding are weak or reduced against the parent protein; the word gives no strength.

With Cdk9 (from UniProt P50750 1-372), the binding entry was “binds”.

For the origin of these results see article PMC10819208.
